# Test results taken from PMC7819943, “Rice protein-binding microarrays: a tool to detect cis-acting elements near promoter regions in rice”.
# The chains behind the UniProt entries cited, without tags or fusion partners.
# UniProt Q0JBA9, entry or part of it: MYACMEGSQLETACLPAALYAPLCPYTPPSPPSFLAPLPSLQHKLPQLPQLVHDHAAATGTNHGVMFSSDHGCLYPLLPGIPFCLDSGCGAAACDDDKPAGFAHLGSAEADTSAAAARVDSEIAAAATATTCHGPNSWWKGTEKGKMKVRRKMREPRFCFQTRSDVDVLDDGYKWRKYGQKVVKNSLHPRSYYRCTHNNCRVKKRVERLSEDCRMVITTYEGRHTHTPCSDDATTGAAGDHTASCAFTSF
# This is one part of the list.
# Molecular target: OsWRKY34 (Oryza sativa, UniProt Q0JBA9 1-250)
# Test: protein-binding microarray (RPBM); PBS, 2% BSA, 51.3 ng/ul salmon testes DNA, 50 uM zinc acetate, 200 nM TF, 25 C, 1 h; high values mean tight binding
# Conditions: protein: recombinant; tags: N-terminal polyhistidine and DsRed monomer fusion (pET32a); label: CyDye5-dUTP incorporated in the synthesized complementary strand; 3' TTTTT single-stranded linker to array surface; dsDNA, one strand shown
# Method in brief: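 Transcription factors were made in E. coli BL21-CodonPlus as N-terminal fusions to a polyhistidine tag and DsRed, then purified on Ni–NTA. After primer extension with Cy5-dUTP and blocking with 2% BSA, a custom Agilent array was exposed for 1 h at 25 °C to 200 nM protein in PBS, 2% BSA, salmon testes DNA and 50 µM zinc acetate. Washed arrays were scanned on an Axon 4000B, and the binding signal is per-feature fluorescence intensity in arbitrary units.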
row,Sequence,binding signal
1,CATGGACAATTTTTACCGAATATATTCTCGGTTGCTTACTCGGAGTCACCTAGTGCAG,8220 fluorescence intensity (a.u.)
2,GTCTGCACATCTGAAAGCTTTCTCCTTCACAGACTGAAGACGGAGTCACCTAGTGCAG,9110 fluorescence intensity (a.u.)
3,ACACATGCTTATATGCTCTCTCCGTTCCATAATAAGTTTACGGAGTCACCTAGTGCAG,10400 fluorescence intensity (a.u.)
4,ATAGCACTTTACTCGTGACTTATGTTTTCAATTTTTTTTACGGAGTCACCTAGTGCAG,11300 fluorescence intensity (a.u.)
5,AGGCTTTAACGTGATTGGGCAGGGGAAGATAATTAATAGACGGAGTCACCTAGTGCAG,9190 fluorescence intensity (a.u.)
6,ACGGGTTGAGGGAGTCTATCTTGGCGTGATGGGAATTTTTCGGAGTCACCTAGTGCAG,11100 fluorescence intensity (a.u.)
7,GCTGGGAGTTAGAACGGTGATCCATCTAGATGTAATGGTCCGGAGTCACCTAGTGCAG,8740 fluorescence intensity (a.u.)
8,GGTCTCTCCAGTACCCTACTCTGCCCTTGTTCTTTTCTTCCGGAGTCACCTAGTGCAG,11000 fluorescence intensity (a.u.)
9,TTGAGAGGTCCACACCACACGGCGGCCGCACCCGATCACACGGAGTCACCTAGTGCAG,8920 fluorescence intensity (a.u.)
10,ATAGTTGTTCTAGCTAGTAGTGGCATCTCGTATATGCCAACGGAGTCACCTAGTGCAG,10500 fluorescence intensity (a.u.)
11,AGTGTTATTTTTATTCTCTCCATCCTGCCGTCTGCACTATCGGAGTCACCTAGTGCAG,10800 fluorescence intensity (a.u.)
12,GTATTTTCAGTTCCCTCCGTTTTAGGTTACAAGTTGTCTTCGGAGTCACCTAGTGCAG,9020 fluorescence intensity (a.u.)
13,CGTTCCAGCCCAACCCGGCCCCGCCCTGCCCCGTTGCCATCGGAGTCACCTAGTGCAG,9370 fluorescence intensity (a.u.)
14,CTGTACCCGTTTGGCCGTTTCCCAAAAGATGCCGCTATTGCGGAGTCACCTAGTGCAG,11700 fluorescence intensity (a.u.)
15,TGTATCCTTCCACCTTTTTATAATATTTAACATACATATTCGGAGTCACCTAGTGCAG,8240 fluorescence intensity (a.u.)
16,TCAGTCACCTGCCCTGCATTCCTTGGCAAGATACATCGTCCGGAGTCACCTAGTGCAG,9300 fluorescence intensity (a.u.)
17,ATTCCTTGCATCCTCCTCGTTCCGTTTTTGTGGTTTTCGACGGAGTCACCTAGTGCAG,10400 fluorescence intensity (a.u.)
18,GACCAGTCAACACTCGCCAGCGCAAATCCTTTTCGAATCCCGGAGTCACCTAGTGCAG,8040 fluorescence intensity (a.u.)
19,GTTTTGCGCCGCCCGCACTGCCAGCCGCTGCCACGCTGCTCGGAGTCACCTAGTGCAG,8590 fluorescence intensity (a.u.)
20,AGCTTTCACCTCATTAAGACCGGTATCTGTTGAGACTTGACGGAGTCACCTAGTGCAG,8860 fluorescence intensity (a.u.)
21,GGGCCTGGGCTGGCCCGTTATTTTTTCTGTTTGTGTCTTTCGGAGTCACCTAGTGCAG,8880 fluorescence intensity (a.u.)

row,Sequence,binding signal
1,TTTGTCGTGTTGACCACAGCCTAATCCTCCTCGGATGTCTCGGAGTCACCTAGTGCAG,10000 fluorescence intensity (a.u.)
2,CAACCGGCAACCACCAACACCTTCACCTTCCGAATCCTGACGGAGTCACCTAGTGCAG,8520 fluorescence intensity (a.u.)
3,CTAACCCTATTTCTTCTCCTCACCTCCCCTTCCCATCCCACGGAGTCACCTAGTGCAG,8200 fluorescence intensity (a.u.)
4,CTCGCCGCTCGTCACTCGGCTCTCGCATCAGGGGCATACGCGGAGTCACCTAGTGCAG,9040 fluorescence intensity (a.u.)
5,TCTCTGTTCGCTTTCGTACCTGCATTTCACTTTCTTTCTACGGAGTCACCTAGTGCAG,13900 fluorescence intensity (a.u.)
6,TCCATTTCACACTAAGTCGTTTCGATTTTTTTTATAGTCACGGAGTCACCTAGTGCAG,8740 fluorescence intensity (a.u.)
7,ATTTTTCTATTTCAGGGATGGGGATGTGCTTATCGTTCTCCGGAGTCACCTAGTGCAG,8130 fluorescence intensity (a.u.)
8,GAGAGGCTGACGGGTAGGGTCCATACTTTTTTTCATACTGCGGAGTCACCTAGTGCAG,8140 fluorescence intensity (a.u.)
9,GATTCTATGGTTGATGGTTAATTTCATAGTTGATGGACTGCGGAGTCACCTAGTGCAG,8750 fluorescence intensity (a.u.)
10,CTCCTGCGCGGCCACGTCTCACCTACCACCACCTTACCCTCGGAGTCACCTAGTGCAG,14800 fluorescence intensity (a.u.)
11,ATTATATTTTACAATTCTCTATTTTACACTTATATTTTCACGGAGTCACCTAGTGCAG,9230 fluorescence intensity (a.u.)
12,CTAGGTGCCTACCCTTTTGACCTCCACTTGCTACAAGTTACGGAGTCACCTAGTGCAG,10600 fluorescence intensity (a.u.)
13,TAATCTCTTCTTACACACTGCTTATATTTTGATGTGTTTCCGGAGTCACCTAGTGCAG,11000 fluorescence intensity (a.u.)
14,TTCATCTTCTCCTCCGTTTCTTCTTCGCTTGTCTCCAAGCCGGAGTCACCTAGTGCAG,8390 fluorescence intensity (a.u.)
15,GCATTTATATGGGGTGGTGATTAATGGTGTTGTTTAAGGGCGGAGTCACCTAGTGCAG,8990 fluorescence intensity (a.u.)
16,TCAACCATAATCACTAGTGTCACAAACACCTTGAAATTCACGGAGTCACCTAGTGCAG,8120 fluorescence intensity (a.u.)
17,TCCACCCCATCCATCCGTCCGTCCGTCGCACCAGGCCCACCGGAGTCACCTAGTGCAG,9660 fluorescence intensity (a.u.)
18,TCTCTCTCTCTCTCTCTCTCTCTCTCTATATATATATATACGGAGTCACCTAGTGCAG,9620 fluorescence intensity (a.u.)
19,GCAGCAAATCGATTTTATCCGCCGCACCTTTTGCCGCTCTCGGAGTCACCTAGTGCAG,8100 fluorescence intensity (a.u.)
20,TCATCTTCACCTCCATTTGGCTTTATTTCTTACCTTTTAACGGAGTCACCTAGTGCAG,10700 fluorescence intensity (a.u.)
21,GTAGCCTTTCAGCTCACCGAGTTCTCCTGTTCCTTCCGGCCGGAGTCACCTAGTGCAG,8740 fluorescence intensity (a.u.)

row,Sequence,binding signal
1,CACTTAATCTTCATCTTTATCCTCATCTACTTGAGTTACTCGGAGTCACCTAGTGCAG,10700 fluorescence intensity (a.u.)
2,CCCTCCGTTTCTTTTTATTTGTCGTTTTTGACAGCTTCAGCGGAGTCACCTAGTGCAG,9420 fluorescence intensity (a.u.)
3,TAACTTTCCACTTTTCTGTCATATCGTTTTAATTTTAACTCGGAGTCACCTAGTGCAG,10300 fluorescence intensity (a.u.)
4,CCATAGACTTCACTACTCATCTTGTTCGTCGTTTTAGTTGCGGAGTCACCTAGTGCAG,8540 fluorescence intensity (a.u.)
5,TTATGTTAAGATCACCCTACACTGCTTATGCCATGATCATCGGAGTCACCTAGTGCAG,9760 fluorescence intensity (a.u.)
6,TCAATCTATCCATATTAGTCCTTCAAGTTTTCATTTTAGTCGGAGTCACCTAGTGCAG,8160 fluorescence intensity (a.u.)
7,GTATTTTAAATTCCACTTGAAGTATTTTTGGTTCTTTCACCGGAGTCACCTAGTGCAG,8060 fluorescence intensity (a.u.)
8,ACATACTCACACTCTGCCTAGTAAAGTCTAACAATGGTCCCGGAGTCACCTAGTGCAG,9000 fluorescence intensity (a.u.)
9,CTCTCTCATCCATTGCCTCGTTTTTCTCTATAGACTATCTCGGAGTCACCTAGTGCAG,8680 fluorescence intensity (a.u.)
10,TAGGTGATCCATTCTTTCTTTCTTTTCCTTTTTTGTCTTCCGGAGTCACCTAGTGCAG,11900 fluorescence intensity (a.u.)
11,CAAGCCTACGCTACTCGTTGGATTGTCATTTTCTCATTTTCGGAGTCACCTAGTGCAG,9040 fluorescence intensity (a.u.)
12,ACGACCCGTCTAGTTGCCCGTTCACGATTCACGCCTTCACCGGAGTCACCTAGTGCAG,9990 fluorescence intensity (a.u.)
13,ACACAGTCACACTCATCTCCCTGTTGGATGTTCACAGTCGCGGAGTCACCTAGTGCAG,9770 fluorescence intensity (a.u.)
14,ACATCGAATCCGCCATCGTTCCTTAGCTACGCCATATAATCGGAGTCACCTAGTGCAG,13200 fluorescence intensity (a.u.)
15,TGGTATTCCCTGTCCCCAACACCCACAAGAATACAAGAACCGGAGTCACCTAGTGCAG,8260 fluorescence intensity (a.u.)
16,TCAAGCCTACTTCACCACTTTTCCTCCATCCATTTTGTCACGGAGTCACCTAGTGCAG,9110 fluorescence intensity (a.u.)
17,TATCGATCAGGCATCACCCACTCCAAGCCATGGCCCTTTCCGGAGTCACCTAGTGCAG,8320 fluorescence intensity (a.u.)
18,CTCTTCTCTACCTATCATATTTATTCTTCATCTATTACGACGGAGTCACCTAGTGCAG,9070 fluorescence intensity (a.u.)
19,GGCTTATTACCAGTGGGACACCCACTTTTTCTTTTATTTTCGGAGTCACCTAGTGCAG,8340 fluorescence intensity (a.u.)
20,GGGTTATCTCGTCGTTTGCTTCGCTGTTATGCCGCCGCGGCGGAGTCACCTAGTGCAG,16000 fluorescence intensity (a.u.)
21,AATAAGTTAAAACATCTGTCGCTGCAATTCCGGAGATACTCGGAGTCACCTAGTGCAG,8130 fluorescence intensity (a.u.)

row,Sequence,binding signal
1,AACATTCAAACCGTGCTCAATTTCTCTCTCTCTCTCTCTCCGGAGTCACCTAGTGCAG,9860 fluorescence intensity (a.u.)
2,TAACACCCCAACCAAACCCCACTTTGGCACTTTATAAAATCGGAGTCACCTAGTGCAG,8310 fluorescence intensity (a.u.)
3,CATCTTCGTCCTTTAAATTTGTTTTATTTTAAATCCTCTACGGAGTCACCTAGTGCAG,8400 fluorescence intensity (a.u.)
4,ACTGTCCATTAATTTCCTAACTCCATGCCGTTTTCCAACTCGGAGTCACCTAGTGCAG,8610 fluorescence intensity (a.u.)
5,CCGTTCGCTCGCTCGCAAGCCCATGCCTCCAAGTAGCTTCCGGAGTCACCTAGTGCAG,12000 fluorescence intensity (a.u.)
6,TTATGGGTGGGTGAACAGGTGAGCAGCCAGGTTGATCTCCCGGAGTCACCTAGTGCAG,8810 fluorescence intensity (a.u.)
7,CGATCTCCGTCCATCGATATGTCACGTACTCCTCACCAACCGGAGTCACCTAGTGCAG,8370 fluorescence intensity (a.u.)
8,CTCCCTTGCCGTCCCAGTTTCCCTGTATTCTGCATGCCGTCGGAGTCACCTAGTGCAG,9850 fluorescence intensity (a.u.)
9,ATTCTTTGTCAATTGTCCTTTTTTTTTTTCTGTCAAGCTACGGAGTCACCTAGTGCAG,15100 fluorescence intensity (a.u.)
10,ACACCGAAATTTGTGAAAAATACTCCCTCTGTCCCATTTTCGGAGTCACCTAGTGCAG,9070 fluorescence intensity (a.u.)
11,CTTTTTTAACTTCGGACCTTAATTTCTTTCTCCGAGGCCGCGGAGTCACCTAGTGCAG,8220 fluorescence intensity (a.u.)
12,AGCTAAGGTGATTCTTCATTTGCCTTCTTTAACGTTTCTTCGGAGTCACCTAGTGCAG,8660 fluorescence intensity (a.u.)
13,GCAAGCTTCATCCATGTCTCACCTTTTCTAAAACCCTAATCGGAGTCACCTAGTGCAG,9760 fluorescence intensity (a.u.)
14,TGCAGATCCTCTTGTTGATGCTGTGCACAATTTCTCAAATCGGAGTCACCTAGTGCAG,8290 fluorescence intensity (a.u.)
15,CTGATGCGTTGTGTAGGGGTTATTATAGGCTTCATTGTTCCGGAGTCACCTAGTGCAG,13500 fluorescence intensity (a.u.)
16,ATACTACTACTCCATATAGCTTATTGACTTTGACATATAACGGAGTCACCTAGTGCAG,8800 fluorescence intensity (a.u.)
17,ATGAGGGAAGTGTGGCGCTGTAGCTTCGGGTGGTGGGGCTCGGAGTCACCTAGTGCAG,10400 fluorescence intensity (a.u.)
18,TGGCGATCCTTATGAGTTGTGGTGGTTTGACTTACCTGTCCGGAGTCACCTAGTGCAG,10200 fluorescence intensity (a.u.)
19,AATCGAGCTTACCGTTTGACCCTCTTTTCGCTCACCGTTACGGAGTCACCTAGTGCAG,10400 fluorescence intensity (a.u.)
20,CTGGACGCGGTCCTGCACGACACATGCATCATCTCCTCAACGGAGTCACCTAGTGCAG,8570 fluorescence intensity (a.u.)
21,CTTTATTTACGTTTAGAACTGTTTATTACTTGTCGTTTTGCGGAGTCACCTAGTGCAG,9950 fluorescence intensity (a.u.)

# For convenience, some entries already given:
row,Sequence,binding signal
2,TAACACCCCAACCAAACCCCACTTTGGCACTTTATAAAATCGGAGTCACCTAGTGCAG,8310 fluorescence intensity (a.u.)
3,CATCTTCGTCCTTTAAATTTGTTTTATTTTAAATCCTCTACGGAGTCACCTAGTGCAG,8400 fluorescence intensity (a.u.)
4,ACTGTCCATTAATTTCCTAACTCCATGCCGTTTTCCAACTCGGAGTCACCTAGTGCAG,8610 fluorescence intensity (a.u.)
5,CCGTTCGCTCGCTCGCAAGCCCATGCCTCCAAGTAGCTTCCGGAGTCACCTAGTGCAG,12000 fluorescence intensity (a.u.)
6,TTATGGGTGGGTGAACAGGTGAGCAGCCAGGTTGATCTCCCGGAGTCACCTAGTGCAG,8810 fluorescence intensity (a.u.)
